{"source": "PubChem BioAssay AID1159584 (Peter MacCallum Cancer Centre, 2016)", "aim": "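Knock-downs that harm CDH1-null cells more than parental MCF10A cells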 (primary screen)", "system": "human MCF10A breast epithelial cells, parental and CDH1-null", "knock-down reagent": "siRNA against human genes", "measurement": "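Cell viability by CellTiter-Glo ATP luminescence, each line scaled to the mean of mock wells across plates, then CDH1-null over parental ratio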", "reading the numbers": "CDH1-null / parental viability ratio: higher = CDH1-null cells survive relatively better than parental; CDH1-null viability vs mock: higher = more viable CDH1-null cells", "units": "CDH1-null viability vs mock in fraction of mock", "note": "In all, the deposit lists about 18,000 reagents; this is a random part of them. Further read-outs or replicates are left out here. Not stated in the record: the amount of reagent, the time to read-out."}
{"gene knocked down":"PRKG2","CDH1-null / parental viability ratio":1.22,"CDH1-null viability vs mock":1.33}
{"gene knocked down":"RGS16","CDH1-null / parental viability ratio":1.09,"CDH1-null viability vs mock":0.81}
{"gene knocked down":"TOP1","CDH1-null / parental viability ratio":0.96,"CDH1-null viability vs mock":1.02}
{"gene knocked down":"GCM1","CDH1-null / parental viability ratio":1.07,"CDH1-null viability vs mock":1.06}
{"gene knocked down":"CELSR2","CDH1-null / parental viability ratio":0.87,"CDH1-null viability vs mock":0.67}
{"gene knocked down":"PACRGL","CDH1-null / parental viability ratio":0.98,"CDH1-null viability vs mock":0.6}
{"gene knocked down":"ENDOV","CDH1-null / parental viability ratio":1.03,"CDH1-null viability vs mock":1.02}
{"gene knocked down":"SDHAF1","CDH1-null / parental viability ratio":1.45,"CDH1-null viability vs mock":0.64}
{"gene knocked down":"PRMT1","CDH1-null / parental viability ratio":0.94,"CDH1-null viability vs mock":0.92}
{"gene knocked down":"CD22","CDH1-null / parental viability ratio":0.94,"CDH1-null viability vs mock":0.8}
{"gene knocked down":"ATG10","CDH1-null / parental viability ratio":1.01,"CDH1-null viability vs mock":0.69}
{"gene knocked down":"CYP2A7","CDH1-null / parental viability ratio":1.04,"CDH1-null viability vs mock":0.77}
{"gene knocked down":"DCLK1","CDH1-null / parental viability ratio":0.86,"CDH1-null viability vs mock":0.64}
{"gene knocked down":"CD93","CDH1-null / parental viability ratio":1.02,"CDH1-null viability vs mock":0.94}
{"gene knocked down":"PCSK9","CDH1-null / parental viability ratio":0.73,"CDH1-null viability vs mock":0.3}
{"gene knocked down":"HELZ","CDH1-null / parental viability ratio":0.78,"CDH1-null viability vs mock":0.71}

Part of the list above in another layout:
ENDOV
- CDH1-null / parental viability ratio: 1.03
- CDH1-null viability vs mock: 1.02

SDHAF1
- CDH1-null / parental viability ratio: 1.45
- CDH1-null viability vs mock: 0.64

The list goes on.
{"gene knocked down":"NUP62","CDH1-null / parental viability ratio":0.93,"CDH1-null viability vs mock":0.5}
{"gene knocked down":"TUSC2","CDH1-null / parental viability ratio":1.42,"CDH1-null viability vs mock":1.04}
{"gene knocked down":"KLHL22","CDH1-null / parental viability ratio":1.16,"CDH1-null viability vs mock":1.04}
{"gene knocked down":"SLC75A1","CDH1-null / parental viability ratio":1.15,"CDH1-null viability vs mock":0.78}
{"gene knocked down":"SNAPC2","CDH1-null / parental viability ratio":0.86,"CDH1-null viability vs mock":0.5}
{"gene knocked down":"FNDC9","CDH1-null / parental viability ratio":1.17,"CDH1-null viability vs mock":0.89}
{"gene knocked down":"NAA15","CDH1-null / parental viability ratio":0.87,"CDH1-null viability vs mock":0.7}
{"gene knocked down":"MAPKAPK5","CDH1-null / parental viability ratio":0.81,"CDH1-null viability vs mock":0.67}
{"gene knocked down":"ROPN1","CDH1-null / parental viability ratio":1.05,"CDH1-null viability vs mock":0.67}
{"gene knocked down":"TXLNB","CDH1-null / parental viability ratio":0.87,"CDH1-null viability vs mock":0.82}
{"gene knocked down":"METTL27","CDH1-null / parental viability ratio":0.97,"CDH1-null viability vs mock":0.95}
{"gene knocked down":"ZNF45","CDH1-null / parental viability ratio":1.07,"CDH1-null viability vs mock":1.17}
{"gene knocked down":"SNX3","CDH1-null / parental viability ratio":1.03,"CDH1-null viability vs mock":1.06}
{"gene knocked down":"PEAK1","CDH1-null / parental viability ratio":0.86,"CDH1-null viability vs mock":0.64}
{"gene knocked down":"ZNF383","CDH1-null / parental viability ratio":0.91,"CDH1-null viability vs mock":0.71}
{"gene knocked down":"METTL2A","CDH1-null / parental viability ratio":1.07,"CDH1-null viability vs mock":0.64}
{"gene knocked down":"AGAP2","CDH1-null / parental viability ratio":1.16,"CDH1-null viability vs mock":0.64}
{"gene knocked down":"BACE2","CDH1-null / parental viability ratio":1.38,"CDH1-null viability vs mock":0.69}
{"gene knocked down":"BTN3A1","CDH1-null / parental viability ratio":0.92,"CDH1-null viability vs mock":0.37}
